{"source": "patent US10500164B2", "about": "“Nanoparticle-based combinatorial therapy” (The American University in Cairo, priority 2014, dated 2019)", "test_system": "MCF-7 cells", "assay": "MTT cytotoxicity assay on breast cancer cell line (MCF-7), 48 hrs incubation", "format": "cell-based", "details": "free DOX or DOX part of DOX-NCs", "procedure": "The in-vitro test was conducted using the MTT assay on breast cancer cell line (MCF-7) and human fibroblast cell line (1BR hTERT), which was performed as follows:\n(1) Testing the cytotoxic effect of different concentrations (2, 4, 8, 10, and 12 μg/ml) of free DOX alone,\n(2) Testing the cytotoxic effect of AgNPs and core-shell Ag/polymeric (PVA, PEG, and PVP) NPs using different concentrations (10, 20, 50, and 100 μg/ml), and\n(3) Testing the cytotoxic effect of NPs-based combinatorial therapy of an individual type of DOX-Ag/polymeric NCs including DOX-loaded Ag/PVA NCs, DOX-loaded Ag/PEG NCs, and DOX-loaded Ag/PVP NCs using different concentrations (0.1, 0.2, and 1 μg/ml DOX).\nTo assess the cytotoxic effect of AgNPs and core-shell Ag/polymeric NPs, MCF-7 and 1BR hTERT cells were exposed separately to different concentrations of NPs for 48 hrs. AgNPs and core-shell Ag/polymeric (PVA, PEG and PVP) NPs decreased the cell viability of MCF-7 cells and 1BR hTERT cells (FIGS. 8A-D) in a dose-dependent manner. […] The IC50 of NPs in 1BR hTERT cells was 100 μg/mL for Ag NPs, Ag/PVA NPs, and Ag/PEG NPs, and 50 μg/mL for Ag/PVP NPs.\nTo investigate the cytotoxic effect of NPs-based combinatorial therapy, first, different concentrations of free DOX (2, 4, 8, 10, and 12 μg/mL) were tested on MCF-7 and 1BR hTERT cells, and cell viability was determined after 48 hrs. […]"}
{"compound": "COc1cccc2c1C(=O)c1c(O)c3c(c(O)c1C2=O)C[C@@](O)(C(=O)CO)C[C@@H]3O[C@H]1C[C@H](N)[C@H](O)[C@H](C)O1", "note": "[free DOX, Doxorubicin]", "values": [{"measurement": "IC50 (DOX concentration)", "value": 3.7, "unit": "µg/mL"}]}
